According to PubChem BioAssay AID2685 (National Center for Advancing Translational Sciences (NCATS), 2010):
Hit rate of the full screen: of about 320,000 compounds, about 2,100 (0.66%) were called active. The shares of active, inactive and inconclusive entries below differ from those in the screen. The call rests on the fitted dose curve; in most records, active means well fitted inhibition curve with a large enough effect in the signal ratio, with a control signal flat (not every such curve was filed as active); inconclusive means small, poorly fitted or top-dose-only effect, or effect the other way, or a change in a side signal; inactive means flat fitted curve, though single readings scatter; the % refers to the signal ratio. Potencies beside an inconclusive call are fits to weak or partial responses and may not hold up.

Assay: qHTS Assay for Lipid Storage Modulators in Drosophila S3 Cells
Details: BODIPY lipid droplet fluorescence, 18-24 h, cells fed with added oleic acid; lipid storage change, negative = inhibition: at 46.1 µM (top of the series) unless noted
Summary of the method: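 Laser-scanning cytometry quantifies lipid droplet accumulation (500–530 nm total intensity; droplet/cell object ratio) in oleic acid-fed (400 uM added) Drosophila S3 cells treated with a concentration series. 20 uM Triacsin C defined 100% inhibition.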
On the % scale 0 is the no-effect control and ±100 the full control effect; potency means the concentration at half of the fitted maximal effect.

Row | SMILES | Potency | lipid storage change, negative = inhibition
1 | CN1CCN(C(=O)c2cc3c(=O)n4ccccc4nc3s2)CC1 | inconclusive: 4.61 µM [falling, single point] | –
2 | Cc1nn(-c2ccccc2)c(Cl)c1/C=C1/C(=N)N2N=C(C(C)C)SC2=NC1=O | – | inactive: -3.97%
3 | O=C(CNC(=O)c1ccncc1)Nc1ccc(F)c(F)c1 | – | inconclusive: 2.09%
4 | O=c1c2cc(Cl)ccc2nc(-c2ccc(Cl)c(Cl)c2)n1O | – | inconclusive: 3.38%
5 | CC(=O)Nc1ccc(SC[C@H](C)CN2CC[C@H](O)CCC2=O)cc1 | inconclusive: 18.4 µM [activator, single point] | –
6 | C=CCCN(Cc1ccccc1)S(=O)(=O)c1ccccc1Br | – | inconclusive: 18.3%
7 | CCOc1c2ccc(C(=O)NCc3ccc(C)cc3)cc2nn1CCOC | – | inconclusive: -40.3%
8 | Cc1ccc(S(=O)(=O)N(CC(=O)N2CCC(C(N)=O)CC2)c2cccc(C(F)(F)F)c2)cc1 | – | inconclusive: -31.8%
9 | O=C(NC1CCOCC1)C1CCC(=O)N(CCc2cccc(F)c2)C1 (configuration not stated) | – | inconclusive: -11.5%
10 | CCOC(=O)Cc1cc(=O)c2c(=O)n(-c3ccccc3)[nH]c2[nH]1 | – | inconclusive: -16.2%
11 | COc1ccccc1OCCC(=O)Nc1cccc(S(=O)(=O)N2CCCCC2)c1 | – | inactive: 14.9%
12 | O=C1OC(c2ccccc2)=N/C1=C\C=C\c1ccco1 | – | inconclusive: 36.2%
13 | CCCN(CC(=O)Nc1ccccc1OC)C(=O)c1cccc(S(=O)(=O)Nc2ccc(OC)cc2)c1 | inconclusive: 3.66 µM [falling, partial curve, poor fit] | –
14 | COC(=O)Nc1nn(-c2ccc(Cl)cc2)c(=O)c(C#N)c1C | – | inconclusive: 19.5%
15 | O=[N+]([O-])c1ccc(N2CCN(Cc3ccccc3)CC2)s1 | – | inconclusive: -5.49%
16 | COc1ccc(/C=N/OCc2nc3c4c(ncn3n2)Oc2ccc3ccccc3c2C4c2ccccc2)cc1 (configuration not stated) | – | inconclusive: 500%
17 | CCCCC(=O)N1C/C=C\C(c2ccc(OC)cc2)N(Cc2ccc(F)cc2)C(=O)[C@H]1Cc1ccccc1 (some centres not stated) | inconclusive: 29.1 µM [cytotoxic, single point] | –
18 | O=C(CCN1C(=O)C2CCCCC2C1=O)Nc1ccc(Br)cc1F (configuration not stated) | – | inconclusive
19 | CC(C)CN1CCN(Cc2cccn2-c2cccnc2)CC1CCO (configuration not stated) | inconclusive: 18.4 µM [activator, single point] | –
20 | CC(C)c1ccccc1NC(=O)COC(=O)c1ccc(Cl)c(S(=O)(=O)N2CCCCCC2)c1 | inconclusive: 29.1 µM [falling, single point] | –
21 | CCOC(=O)[C@@H]1[C@H]2COc3ccccc3[C@H]2N2C(=O)N(c3cccc(Cl)c3)C(=O)[C@@]12C | inconclusive: 25.9 µM [falling, single point] | –
22 | O=C(O)c1ccc(-n2nnnc2Oc2cccc3cccnc23)cc1 | active: 23.1 µM | –
23 | CCn1c(SCC(=O)N(C)C2CCS(=O)(=O)C2)nnc1-c1ccccc1 (configuration not stated) | – | inactive: -21%
24 | CCOc1ccc(N(CC(=O)Nc2ccccc2C)S(=O)(=O)c2c(C)noc2C)cc1 | inconclusive: 0.116 µM [activator, full curve, poor fit] | –

Record cards (already shown). Values in the order: Potency | lipid storage change, negative = inhibition
`CCn1c(SCC(=O)N(C)C2CCS(=O)(=O)C2)nnc1-c1ccccc1` (configuration not stated) as listed: – | inactive: -21%
`CCOC(=O)[C@@H]1[C@H]2COc3ccccc3[C@H]2N2C(=O)N(c3cccc(Cl)c3)C(=O)[C@@]12C` as listed: inconclusive: 25.9 µM [falling, single point] | –
`CC(C)c1ccccc1NC(=O)COC(=O)c1ccc(Cl)c(S(=O)(=O)N2CCCCCC2)c1` as listed: inconclusive: 29.1 µM [falling, single point] | –

Carrying on.

Row | SMILES | Potency | lipid storage change, negative = inhibition
25 | O=C(COc1cc2oc(=O)c3c(c2cc1Cl)CCCC3)NCC1CCC(C(=O)O)CC1 (configuration not stated) | – | inconclusive: -152%
26 | COc1ccc(-c2c(-c3cc(OC)cc(OC)c3)n(C)c3ccc(-c4cccc5[nH]ccc45)cc23)cc1 | inconclusive: 0.146 µM [falling, single point] | –
27 | NC(=O)CSc1nnc(-c2cnccn2)n1Cc1ccco1 | – | inconclusive: 52.2%
28 | Cc1ccc(Cn2c(=N)c(C(=O)NCC3CCCO3)cc3c(=O)n4cccc(C)c4nc32)cc1 (configuration not stated) | – | inconclusive: -51.2%
29 | CC(C)(C)c1ccc(C(=O)NCCCNC(=O)c2cccnc2)cc1 | – | inconclusive: 20.3%
30 | Nc1ccc(C(=O)N/N=C2\CCCc3c2[nH]c2ccccc32)cc1 | inconclusive: 0.411 µM [falling, full curve, poor fit] | –
31 | NS(=O)(=O)c1cc2c(cc1Cl)NC(C1CC3C=CC1C3)NS2(=O)=O (configuration not stated) | – | inconclusive: -14.2%
32 | CCc1ccc(S(=O)(=O)Nc2c(NC3CCCCC3)c3ccccc3oc2=O)cc1 | – | inconclusive: -160%
33 | CN(C(=O)CC1C(=O)NCCN1Cc1cccc(F)c1F)C1CCOCC1 (configuration not stated) | – | inconclusive: 6.56%
34 | CCC(Oc1ccccc1)C(=O)Nc1ccccc1C(=O)N1CCOCC1 (configuration not stated) | – | inconclusive: -10.6%
35 | FC(F)Oc1ccc(NC(=S)NN2CCOCC2)cc1 | inconclusive: 6.51 µM [falling, single point] | –
36 | Cc1nc2c(cc1NC(=O)C(C)(C)C)nc(C)n2Cc1ccccc1 | – | inconclusive: -39.4%
37 | Cc1cc(C)c(C#N)c(N2CCN(CCOc3ccc(Cl)cc3)CC2)n1 | – | inconclusive: 1.92%
38 | O=S(=O)(Nc1ccncc1Cl)c1ccc2ccccc2c1 | – | inconclusive: -28.7%
39 | COc1ccc(/C=N/NC(=O)c2cc(-c3ccccc3OC(C)C)nc3ccccc23)cc1CN1CCOCC1 | inconclusive: 0.731 µM [activator, full curve, poor fit] | –
40 | O=C(Nc1cccc(F)c1)C1CCN(C(=O)N2CCOc3ccccc32)CC1 | – | inconclusive: -18.5%
41 | Cc1ccc(CNC(=O)C2CCC(=O)N(Cc3ccc(Cl)cc3)C2)cc1F (configuration not stated) | – | inconclusive: -63.5%
42 | CCCc1cc(=O)oc2cc(OCC(=O)Nc3ccccn3)ccc12 | inconclusive: 18.4 µM [falling, single point] | –
43 | O=C(NCCO)C(c1ccccc1)c1ccccc1 | inconclusive: 29.1 µM [falling, single point] | –
44 | CC(=O)c1c(C)cc(C)c(CSc2ccccn2)c1C | – | inconclusive: 101%
45 | O=C(COc1ccc(Cl)cc1Cl)NCCSc1ccc(Cl)cc1 | inconclusive: 18.4 µM [activator, partial curve] | –
46 | O=C(Nc1ccc2c(c1)OCCO2)c1ccc(Cl)c(S(=O)(=O)N2CCCCC2)c1 | inconclusive: 29.1 µM [activator, single point] | –
47 | CC(C)(C)NC(=O)NC(=O)CN1CCN(S(=O)(=O)c2ccc3c(c2)CCCC3)CC1 | – | inconclusive
